Primary screen of a compound library

From ChEMBL document CHEMBL3988442, “University of Dundee, Small-Polar-MMV Screening Library” (2021).

The filed quantity is “Percent Effect” (%). How 0% and 100% were set is not recorded. Most values in the screen are low, and negative values occur. This is an unselected part of the compounds tested.

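Assay of Toxoplasma gondii numbers, read through their beta-galactosidase reporter with a colour substrate. Concentration: 10 µM. The record gives no direction; the compounds picked for IC50 retests had high values, so higher reads as fewer parasites. Of about 67,000 compounds tested this way, about 260 (0.38%) reached 50% or more in at least one test.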

| # | compound | effect |
|---|---|---|
| 1 | `CCc1[nH]c2c(CNc3cncc(C(=O)N(C)C)n3)cc(C)cc2c1C` | -3.661% |
| 2 | `c1ccc(CCCN2CCCC(Nc3cnc4ccccc4n3)C2)cc1` (stereo not shown) | 2.087% |
| 3 | `Cc1nn(C)c(C)c1-c1cc(-c2cnn(C)c2C2CC2)c(C#N)c(N)n1` | 9.007% |
| 4 | `CNC(=O)Cn1ccc2ccc(NC(=O)C(C)C)cc21` | -9.676% |
| 5 | `Cc1cc(C)cc(NCCC(=O)NCc2cccnc2N(C)C)c1` | -2.826% |
| 6 | `Cc1nc(N2CCOCC2)ncc1-c1cc(O)nc(N2CCCC2)n1` | 0.3367% |
| 7 | `CCc1ccc(CN2CCN(c3cccc(OC)c3)C(=O)C2)nc1` | 10.51% |
| 8 | `CCN1Cc2ccccc2CC2(CCN(C(=O)N(C)C)CC2)C1=O` | 10.24% |
| 9 | `c1cncc(CCc2nc(C3CC3)nn2-c2ccc3c(c2)OCCO3)c1` | 3.687% |
| 10 | `O=C(c1cnc2ccc(Cl)cc2c1NCc1ccco1)N1CCCCC1` | 0.1997% |
| 11 | `CN1C(=O)c2cccc(NC(=O)c3cccc(S(C)(=O)=O)c3)c2C1=O` | 1.371% |
| 12 | `CNC(=O)NCC1CCC2(CCN(C(=O)c3cccnc3)CC2)CO1.O=C(O)C(F)(F)F` (stereo not shown) | -7.938% |
| 13 | `O=C(O)C(F)(F)F.[H][C@@]12CCN(Cc3ccc4c(c3)OCO4)C[C@]1([H])O[C@H](C(=O)N(C)C)C2` | -14.85% |
| 14 | `CCc1noc(CNc2ccc(C(=O)N3CCCC3)cc2C)n1` | -11.23% |
| 15 | `Cc1ccc(OC2(C(=O)O)CCN(C(=O)c3cc(C)oc3C)CC2)cn1` | -0.2249% |
| 16 | `O=C(C1CC(=O)N(c2ccccc2Br)C1)N1CCN(CC(F)(F)F)CC1` (stereo not shown) | -27.19% |
| 17 | `O=C(c1n[nH]cc1Cl)N1CCOC(Cc2cccc(C(F)(F)F)c2)C1` (stereo not shown) | -0.2817% |
| 18 | `CCCc1nccn1-c1cccc(CN2CCCC2)c1` | -43.05% |
| 19 | `CN1C[C@]2(CC[C@@H](C(=O)N3CCOCC3)CC2)Oc2ccccc2C1=O` | 20.84% |
| 20 | `CN1CCN(C(=O)c2n[nH]c3c2CN(Cc2nccs2)CC3)CC1` | -2.482% |
| 21 | `NC(=O)C1CN(C(=O)Nc2ccccc2-c2cccs2)CCO1` (stereo not shown) | 4.2% |
| 22 | `O=C(Cn1c(=O)n(Cc2ccco2)c2ncccc21)NC1CCCCC1` | 29.92% |
| 23 | `O=C(O)C(F)(F)F.O=C(O)C(F)(F)F.[H][C@@]12OCCN(C3CCCC3)[C@@]1([H])CC[C@H]2Oc1cccnc1` | -15.46% |
| 24 | `CC(C)c1nc(/C=C/c2cnn(-c3ccc(Cl)cc3)c2)ncc1C(=O)O` | -0.6724% |
| 25 | `[H][C@@]12CCC(=O)N(CCc3c[nH]cn3)[C@]1([H])CCN(Cc1cccc(F)c1)C2` | -25.99% |
| 26 | `O=C(c1ccc(Cl)cc1)N1CCn2c(nn(-c3cccc(Cl)c3)c2=O)C1` | 3.923% |
| 27 | `CN1CCN(C(=O)c2cc3sccc3n2Cc2ccccc2Cl)CC1` | -22.72% |
| 28 | `CN(C)Cc1nnn2c1CN(Cc1cccnc1)CCC2.O=C(O)C(F)(F)F.O=C(O)C(F)(F)F.O=C(O)C(F)(F)F` | -0.8097% |
| 29 | `Nc1c(N2CCCC2)ncnc1N1CCOCC1` | -5.996% |
| 30 | `COc1ccc(CNCc2cc(Br)c3c(c2)OCO3)cc1` | 0.6866% |
| 31 | `COCCC1(C(=O)O)CCCN(CCc2ccccc2)C1` (stereo not shown) | -27.88% |
| 32 | `Cc1cnn(CCNCC(O)COc2ccc(F)cc2)c1` (stereo not shown) | 7.611% |
| 33 | `COc1ccccc1CC(=O)NS(=O)(=O)c1cncc(Br)c1` | 1.694% |
| 34 | `COCc1nc(C2CCN(Cc3ncc[nH]3)CC2)no1` | 8.906% |
| 35 | `COCC(C)(C#N)NC(=O)c1cn(-c2cccc(Cl)c2F)nn1` (stereo not shown) | 22.39% |
| 36 | `Cc1ccc(-c2[nH]c3ccccc3c2C(=O)O)c(C)c1` | -0.6823% |
| 37 | `CCN(C)Cc1n[nH]c(=O)n1-c1ccc(C)c(C)c1` | -9.144% |
| 38 | `CC[C@H]1CN(C(=O)c2cccnc2)CC[C@H]1CC(=O)NCCOC` | -5.019% |
| 39 | `CCCN(c1ccccc1C(=O)O)S(=O)(=O)c1ccc2ccccc2c1` | -4.172% |
| 40 | `CC(C)CN1CCC2(C=C(C(=O)N(C)C)c3ccccc32)CC1.O=C(O)C(F)(F)F` | -8.058% |
| 41 | `C[C@H]1CN(C(=O)c2cccc(F)c2Cl)CCN1S(C)(=O)=O` | 1.619% |
| 42 | `Cc1cc(OC(F)F)c(C(=O)NCC(O)c2cccc(F)c2)s1` (stereo not shown) | 4.278% |
| 43 | `O=C(O)C(F)(F)F.[H][C@]12CCC(=O)N(c3ccccc3)[C@@]1([H])CCN2c1ncc(C)cn1` | 44.67% |
| 44 | `O=C1N(c2cccc(F)c2)Cc2nc(=O)n(Cc3ccccc3Cl)n21` | 7.547% |
| 45 | `CCN(Cc1ccoc1)c1ncc(S(N)(=O)=O)s1` | 19% |
| 46 | `CCCn1ccc(C(=O)Nc2ccc3c(c2)C(C)(C)C(=O)N3C)n1` | 14.96% |
| 47 | `Cc1cc(N(C)Cc2ncc[nH]2)nc(-c2ccccc2)n1` | -5.542% |
| 48 | `CC(=O)NCC1CCN(C(=O)c2ccc(Sc3ccccn3)cc2)CC1` | 0.9185% |
| 49 | `CCc1nncn1CCNC(=O)N1CCCC(Cc2nccn2C)C1` (stereo not shown) | 7.746% |
| 50 | `NC(=O)c1cccc2nc([C@H]3CCN(Cc4ccccc4F)C3)[nH]c12` | 10.78% |
| 51 | `CCC(C)C(=O)NS(=O)(=O)c1ccc(C#N)cc1C(F)(F)F` (stereo not shown) | -11.76% |
| 52 | `Cl.Cn1ccnc1C1(O)CCN(C(=O)CCc2ccccc2)CC1` | 4.069% |
| 53 | `CN(C)c1cccc(C(=O)N2CCn3c(nnc3-c3ccccc3)C2)c1` | 17.97% |
| 54 | `CNc1oc(-c2cc(S(=O)(=O)N3CCCCCC3)c(C)o2)nc1C#N` | 1.076% |
| 55 | `CN(C)Cc1cc(C2CCCCN2S(=O)(=O)c2cccc(Cl)c2)nn1C.Cl` (stereo not shown) | 11.05% |
| 56 | `Cc1noc(C)c1CCC(=O)N1CCCN(Cc2cccs2)CC1` | -26.15% |
| 57 | `Cc1ccc(C(C)C(=O)N2CCCN(Cc3cscn3)CC2)cc1` (stereo not shown) | 30.72% |
| 58 | `CCc1c(C(=O)N2CCC3(CC(=O)NC3=O)C2)csc1C` (stereo not shown) | 4.826% |
| 59 | `Cc1nc(C)n(CCNC(=O)C2(C)CC(c3ccccc3)=NO2)n1` (stereo not shown) | -3.099% |
| 60 | `O=C(CN1CC(c2ccccc2)CC1=O)N1CCN(c2nccs2)CC1` (stereo not shown) | 14.71% |
| 61 | `COc1cccc(S(=O)(=O)N2CCCCC2CCN2CCCC2=O)c1` (stereo not shown) | 12.27% |
| 62 | `NC(=O)C(Nc1cccc(CO)c1)c1ccc(Br)cc1` (stereo not shown) | 4.176% |
| 63 | `O=C(CCc1cscn1)N1CCC(C(=O)O)(c2ccccc2)CC1` | 14.23% |
| 64 | `CCCNC(=O)N1CCC(c2nnc(Cn3cccn3)n2C2CC2)CC1` | -13.09% |
| 65 | `Cn1nnn(-c2ccc(NS(=O)(=O)c3ccc(F)c(Cl)c3)cc2)c1=O` | 3.089% |
| 66 | `O=C(C1CC1)N1CCC(C(=O)N2CCC(c3ccc(F)cc3)C2)CC1` (stereo not shown) | 2.322% |
| 67 | `COCCN(CCC#N)Cn1cc(Cl)cn1` | 5.04% |
| 68 | `Cc1cscc1C(=O)NC1CC(=O)N(C(C)C)C1=O` (stereo not shown) | -5.582% |
| 69 | `CS(=O)(=O)NCCCNC(=O)c1cnc(-c2ccsc2)s1` | 1.512% |
| 70 | `CN1CC(=O)N(c2ccsc2)CC12CCN(C(=O)CC1CCCC1)C2.O=C(O)C(F)(F)F` (stereo not shown) | -5.118% |
| 71 | `O=C(O)C(F)(F)F.[H][C@@]12CN(Cc3ccc(OC)cc3)C[C@]1([H])C(=O)N(c1cncnc1)C2` | 4.762% |
| 72 | `Cc1nc(C)n(CC2CCCN(c3ncnc4[nH]ccc34)C2)n1` (stereo not shown) | 8.83% |
| 73 | `CC(=O)NCc1nc(Cc2cccc(Cl)c2)nn1C1CCN(C)CC1` | 2.164% |
| 74 | `CCc1nc(C2CCCN2c2ncc(C(N)=O)cc2Cl)no1` (stereo not shown) | 3.846% |
| 75 | `O=C(O)C(F)(F)F.O=C(O)C(F)(F)F.[H][C@]12C[C@H](CN(C)C)O[C@@]1([H])CN(Cc1ccco1)C2` | -9.948% |
| 76 | `COCc1ccccc1C(=O)NCC(c1c(F)cccc1F)N(C)C` (stereo not shown) | 12.59% |
| 77 | `N#Cc1cc(Cn2cnc(C3CCC3)cc2=O)ccc1F` | 12.74% |
| 78 | `Cn1ccc(C(=O)NC2CCC23CCN(C(=O)c2ccncc2)CC3)c1.O=C(O)C(F)(F)F` (stereo not shown) | 8.255% |
| 79 | `CCCc1nc(C(=O)N2CCCn3nc(CCC(=O)O)cc3C2)cs1` | -2.654% |
| 80 | `CC(=O)N1CCCN(Cc2ccon2)c2ccccc21` | 4.402% |
| 81 | `Cc1ccc(-c2nnc(CN3CCOCC(CO)C3)o2)n1C` (stereo not shown) | -9.201% |
| 82 | `COc1ccc(CN2CCCCC2CNC(=O)OC(C)(C)C)cc1F` (stereo not shown) | -2.18% |
| 83 | `CCC1CCCCN1C(=O)Cn1cnc(C#N)n1` (stereo not shown) | 8.403% |
| 84 | `COc1ccc(F)cc1NC(=O)NCC1(C)COC1` | -7.186% |
| 85 | `Cc1ccc(C)c(CC(=O)NC2CCC(N3C(=O)CCC3=O)CC2)c1` (stereo not shown) | 9.071% |
| 86 | `CC(=O)N1CCC(Cc2cncc(-c3c(C)n[nH]c3C)n2)C1` (stereo not shown) | -42.82% |
| 87 | `O=C(COCc1ccccc1Cl)N1CCCC(n2cccn2)C1` (stereo not shown) | -35.03% |
| 88 | `CC(C)(C)NC(=O)C1CSCN1C(=O)CCc1ccco1` (stereo not shown) | -7.636% |
| 89 | `Cc1cc(CN2CC3(CCN(C(=O)C4CC4)CC3)CC2C(=O)O)oc1C` (stereo not shown) | -3.746% |
| 90 | `Cc1ccnc(C2COCCN2C)n1` (stereo not shown) | -3.206% |
| 91 | `CCn1ccnc1CNc1nccc(-c2c(C)nn(C)c2C)n1` | 10.62% |
| 92 | `c1cc(-c2noc([C@@H]3Cc4nc[nH]c4CN3)n2)ccn1` | -7.748% |
| 93 | `CO[C@@H]1CCN(S(=O)(=O)c2cn(C)cn2)[C@H]1Cc1ccncc1.O=C(O)C(F)(F)F` | -0.3695% |
| 94 | `O=C(NCC1(O)CCSCC1)c1nccc2ccccc12` | 5.869% |
| 95 | `CN(Cc1cnn(C)c1)CC(O)c1ccc2c(c1)OCCCO2` (stereo not shown) | -0.8038% |

The last 9 entries again:

compound,effect
O=C(COCc1ccccc1Cl)N1CCCC(n2cccn2)C1 (stereo not shown),-35.03%
CC(C)(C)NC(=O)C1CSCN1C(=O)CCc1ccco1 (stereo not shown),-7.636%
Cc1cc(CN2CC3(CCN(C(=O)C4CC4)CC3)CC2C(=O)O)oc1C (stereo not shown),-3.746%
Cc1ccnc(C2COCCN2C)n1 (stereo not shown),-3.206%
CCn1ccnc1CNc1nccc(-c2c(C)nn(C)c2C)n1,10.62%
c1cc(-c2noc([C@@H]3Cc4nc[nH]c4CN3)n2)ccn1,-7.748%
CO[C@@H]1CCN(S(=O)(=O)c2cn(C)cn2)[C@H]1Cc1ccncc1.O=C(O)C(F)(F)F,-0.3695%
O=C(NCC1(O)CCSCC1)c1nccc2ccccc12,5.869%
CN(Cc1cnn(C)c1)CC(O)c1ccc2c(c1)OCCCO2 (stereo not shown),-0.8038%